# Test results taken from PubChem BioAssay AID504834 (National Center for Advancing Translational Sciences (NCATS), 2011).
# Out of some 320,000 compounds screened, about 22,000 (6.9%) were called active. Inconclusive results, whose numbers are uncertain, are shown with a selection of clear calls. Calls come from the whole dose curve; as a rule, active = well fitted inhibition curve with a large enough effect; inconclusive = small, poorly fitted or top-dose-only effect, or another doubt; inactive = no such curve, though single readings can be large or run the other way. A potency beside an inconclusive call is a rough fit, not a confirmed value.
# Assay: Primary qHTS for delayed death inhibitors of the malarial parasite plastid, 96 hour incubation
# Settings: P. falciparum luciferase reporter growth; series mostly up to 28.7 µM; activity change, negative = inhibition: at the top concentration
# In short: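 Plates of compound plus infected erythrocytes (2% hematocrit, 0.05% parasitemia final) incubate 96 hours, 37 C, 5% CO2. Detection reagent added; reduced luminescence from the parasites' luciferase reporter flags inhibition.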
# % is set by controls: 0 for no effect and ±100 for the full control effect; potency is the fitted concentration of half-maximal effect.
SMILES,Potency,"activity change, negative = inhibition"
CC1CCN(CCOc2ccccc2-c2ccccc2)CC1,"inconclusive: 13.1 µM [inhibitor, partial curve, poor fit]",
CCN(CC)CCNC(=O)c1ccc(NC(=O)c2ccccc2-c2ccc(C(F)(F)F)cc2)cc1,active: 9.28 µM,
CCOC(=O)c1sc2c(c1C)C(c1cccs1)C1=C(CCCC1=O)N2 (centres undefined),active: 11.7 µM,
CCCN1C(=O)C2C(C(=O)Nc3cccc(OC)c3)C3C=CC2(O3)C1C(=O)NC1CCCCC1 (centres undefined),,inactive: 60.8%
CC(=O)c1ccc(NC(=O)C[n+]2ccccc2)cc1,"inconclusive: 10.4 µM [inhibitor, single point]",
Cc1ccc2[nH]cc(C(=O)CN3CCOCC3)c2c1,,inactive: 25.3%
CC(C)(C)[C@H]1CCC(=O)N([C@H](CN=[N+]=[N-])Cc2ccccc2)CC1,"inconclusive: 10.4 µM [inhibitor, single point]",
COc1cccc(/C=N/N2CCN(C3c4ccccc4-c4ccccc43)CC2)c1O,"inconclusive: 18.5 µM [inhibitor, single point]",
O=C(/C=N/O)NCCCN1CCOCC1,"inconclusive: 9.28 µM [inhibitor, single point]",
COc1cccc(OCC(O)CNC(=O)c2oc3c(C)c(C)ccc3c2C)c1 (centres undefined),"inconclusive: 18.5 µM [inhibitor, single point]",
COc1ccc(OC)c(C2C(C(=O)N(C)C)=C(C)Nc3nc4ccccc4n32)c1 (centres undefined),"inconclusive: 0.0029 µM [inhibitor, full curve, poor fit]",
CC1(OC(=O)C2CCCC2)C(=O)C=C2C=C(c3ccsc3)N(Cc3ccc4c(c3)OCO4)C=C2C1=O (centres undefined),"inconclusive: 10.4 µM [inhibitor, single point]",
CN(CC1COc2ccccc2O1)C(=O)c1cccc(S(=O)(=O)N2CCCC2)c1 (centres undefined),"inconclusive: 18.5 µM [inhibitor, single point]",
Cc1nn(-c2ccccc2)c(C)c1NC(=O)COC(=O)c1cccc(OC(F)F)c1,,inactive: 83.9%
Cc1ccc(NC(=O)CNc2cccc(S(=O)(=O)N3CCCCC3)c2)cc1F,"inconclusive: 18.5 µM [inhibitor, single point]",
Cc1cc(C(=O)COC(=O)[C@H](C)NC(=O)c2ccco2)c(C)n1Cc1ccco1,,inactive: 12.4%
COC(=O)c1c(-c2ccccc2)c(-c2ccccc2)nn(C)c1=O,"inconclusive: 16.5 µM [inhibitor, single point]",
CC(C)NC(=O)c1ccc(N(Cc2ccccc2)S(C)(=O)=O)cc1,,inactive: -21.8%
COCc1cc(Sc2ccc(Cl)cc2Cl)nc(-c2ccccc2)n1,"inconclusive: 5.22 µM [inhibitor, partial curve, poor fit]",
CCCCOC(=O)c1ccc(NC(=O)C(CCS(C)(=O)=O)NC(C)=O)cc1 (centres undefined),active: 5.22 µM,
C#CCSc1nnc(-c2ccc(C)cc2)o1,active: 1.17 µM,
CC(C)[C@H](NC(=O)Nc1ccc(Oc2ccccc2)cc1)C(=O)O,,inactive: 51.7%

# In the list so far, these contain a furan ring, fused or not.
SMILES,Potency,"activity change, negative = inhibition"
COc1cccc(OCC(O)CNC(=O)c2oc3c(C)c(C)ccc3c2C)c1 (centres undefined),"inconclusive: 18.5 µM [inhibitor, single point]",
Cc1cc(C(=O)COC(=O)[C@H](C)NC(=O)c2ccco2)c(C)n1Cc1ccco1,,inactive: 12.4%

# Further entries follow:

SMILES,Potency,"activity change, negative = inhibition"
Cc1cccc(NC(=O)C2=C(O)c3ccccc3N(C)S2(=O)=O)c1,"inconclusive: 4.15 µM [inhibitor, single point]",
Cc1[nH]n(-c2ccccc2)c(=O)c1/C=N/Nc1nncc(-c2ccccc2)n1,active: 0.586 µM,
O=C(Nc1ccc(F)cc1)C(NC1CCCCC1)c1ccccc1 (centres undefined),"inconclusive: 7.38 µM [inhibitor, partial curve, poor fit]",
CCOC(=O)c1cc2c(ccn2C)n1Cc1ccc(C#N)cc1,active: 4.15 µM,
CCC(C)(C)NC(=O)C(c1ccccn1)N(C(=O)c1csnn1)C1CCCCC1 (centres undefined),,inactive: 21.6%
CN1CCC(=NNc2ncnc3sc4c(c23)CCCC4)CC1,"inconclusive: 0.0093 µM [inhibitor, partial curve, poor fit]",
CNC(=O)COC(=O)c1cc(F)c(F)cc1Cl,"inconclusive: 18.5 µM [inhibitor, single point]",
CCOCCCNC(=O)CSc1nc2nc(C)c(Cc3ccccc3)c(C)n2n1,active: 4.65 µM,
O=C(Cc1ccc(F)cc1)N1CCN=C1SCc1cccc([N+](=O)[O-])c1,"inconclusive: 8.28 µM [inhibitor, partial curve, poor fit]",
O=C1OCCN1CCNCc1cn(-c2ccc(F)cc2)nc1-c1ccccc1Cl,"inconclusive: 9.28 µM [inhibitor, single point]",
COc1cc(OC)c(OC)cc1CNC(=O)CCN1C(=O)c2cccc([N+](=O)[O-])c2C1=O,,inactive: 14.8%
Cc1cccc(Cn2cnc3c(sc4nc(C)cc(C)c43)c2=O)c1,,inactive: 12.9%
C/C(=N\Nc1ccccc1C(=O)O)c1ccncc1,,inactive: 152%
CCO[C@H]1OC(C(=O)Nc2ccccc2)=C[C@@H](c2coc3ccccc3c2=O)[C@@H]1CCCO,"inconclusive: 10.4 µM [inhibitor, single point]",
C/C(CCN1CCCCc2nc(C)c(C)cc21)=N\O[C@H](C)c1cn([C@H](CO)Cc2ccccc2)nn1,"inconclusive: 11.7 µM [inhibitor, single point]",
Cc1cc(C(=O)NC(C)CCC(C)C)c2ccccc2n1 (centres undefined),,inactive: 54.7%
COc1cc(C(=O)OCC(=O)Nc2cc(-c3cc(C)c(C)cc3C)nn2-c2ccccc2)cc(OC)c1OC,"inconclusive: 14.7 µM [inhibitor, single point]",
O=C(Nc1nnc(-c2ccco2)s1)C1CCCCC1,"inconclusive: 1.17 µM [inhibitor, partial curve, poor fit]",
N/C(=N\OC(=O)C1CCCCC1)c1ccc(Cl)cc1,"inconclusive: 18.5 µM [inhibitor, single point]",
CCOC(=O)C1CCCN(Cc2ccc(OCc3ccccc3)cc2)C1 (centres undefined),"inconclusive: 11.7 µM [inhibitor, single point]",
CC1CC(C)CN(C(=O)c2cc(-c3ccccn3)nc3ccccc23)C1 (centres undefined),"inconclusive: 8.28 µM [inhibitor, partial curve, poor fit]",
CC(C)CC(COCc1ccc([N+](=O)[O-])cc1)N1CCN(C(=O)c2ccc(C(F)(F)F)cc2)CCC1=O (centres undefined),"inconclusive: 8.28 µM [inhibitor, partial curve, poor fit]",
